Results as given in PubChem BioAssay AID540256 (National Center for Advancing Translational Sciences (NCATS), 2011).
Hit rate of the full screen: of about 300,000 compounds, about 3,700 (1.2%) were called active. Inconclusive results, whose numbers are uncertain, are shown with a selection of clear calls. The call rests on the fitted dose curve; tested in HEK293 cells. Potencies of inconclusive entries are doubtful fits and often do not repeat.

Experiment: qHTS for Inhibitors of binding or entry into cells for Lassa Virus; further: nearly all actives have a fitted effect of over 50% in size
Conditions: Lassa virus pseudotype entry inhibition, cell reporter; series mostly up to 37.9 µM
Potency means the concentration at half of the fitted maximal effect.

SMILES	Potency
CCOc1ccc(C(=O)N2CCCC(c3nc(-c4cccs4)no3)C2)cc1 (stereo unspecified)	inconclusive: 3.55 µM [inhibitor, partial curve, poor fit]
N#Cc1cnn(-c2ccccc2)c1NC(=O)CN1CCN(c2ccccc2)CC1	inactive
CN(C)CC/C=C1/c2cc(F)ccc2CSc2ccc(F)cc21	inconclusive: 32.6 µM [inhibitor, partial curve, poor fit]
CC(=O)c1ccc(NC(=O)COC(=O)c2ccccc2N=Nc2ccc(N(C)C)cc2)cc1	inactive
Cc1nn(C)cc1/C=N/NC(=O)c1ccc2c(c1)OCO2	inactive
O=C(Nc1ccccc1)N1CCCN(c2ccc(C(F)(F)F)cc2[N+](=O)[O-])CC1	inactive
OCc1ccccc1SSc1ccccc1CO	inconclusive: 17.8 µM [inhibitor, single point]
CN(C(=O)COC(=O)C12CC3CC(CC(Cl)(C3)C1)C2)c1ccccc1	inconclusive: 35.5 µM [inhibitor, single point]
Cc1cc(C)n2nc(SCC(=O)N3CCCC(C)C3)nc2n1 (stereo unspecified)	inconclusive: 2.51 µM [activator, full curve, poor fit]
COc1ccccc1NS(=O)(=O)c1ccc(NN=C2CCCC2)c([N+](=O)[O-])c1	inactive
O=S(=O)(c1ccccc1)N(CC1CO1)c1cccc2ccccc12 (stereo unspecified)	inconclusive: 6.31 µM [inhibitor, single point]
CCN(Cc1cccs1)C(=O)CN1CCN(S(=O)(=O)c2ccc3c(c2)OCCCO3)CC1	inconclusive: 10 µM [inhibitor, single point]
COc1cc(C(=S)N2CCCCC2)ccc1OCC(=O)N1CCCC1	inactive
COCCNC(=O)C(c1ccncc1)N(Cc1ccccc1)C(=O)Cn1nnc2ccccc21 (stereo unspecified)	inactive
Cc1ccc(S(=O)(=O)NCC(=O)OCc2ccccc2Br)cc1	inactive
CC(=O)c1cccc(NS(=O)(=O)c2ccc(N/C=C\C(=O)c3ccc(F)cc3)cc2)c1	inconclusive: 25.1 µM [inhibitor, single point]
COc1cccc(-c2nn(C)c3sc(C(=O)N4CCN(c5ccccn5)CC4)cc23)c1	inconclusive: 29.1 µM [inhibitor, single point]
O=C(CNCc1ccc(Cl)cc1)Nc1cc(S(=O)(=O)N2CCCC2)ccc1Cl	inactive
Cc1cc(=O)oc2cc(OCC(=O)NCc3cccnc3)ccc12	inconclusive: 29.1 µM [activator, single point]
COC(=O)NC(NC(=S)Nc1ccccc1OC)C(Cl)(Cl)Cl (stereo unspecified)	inactive
Cc1ccc(-c2nnc(-c3ccccc3)o2)cc1	active: 10 µM
O=C(Nc1ccccc1C(F)(F)F)n1ncc2cc(Cl)ccc21	inactive
CCOc1cc(/C=C2\C(=O)N(Cc3ccc(C)cc3)C(C)=C2C(=O)OC)ccc1O	inconclusive: 15.8 µM [inhibitor, single point]
COCc1nc2oc3ccc(C)cc3c(=O)c2cc1C(=O)OC	inconclusive: 7.08 µM [activator, partial curve, poor fit]

4 compounds picked at random from the list so far, as already listed:
SMILES	Potency
CCOc1ccc(C(=O)N2CCCC(c3nc(-c4cccs4)no3)C2)cc1 (stereo unspecified)	inconclusive: 3.55 µM [inhibitor, partial curve, poor fit]
CCOc1cc(/C=C2\C(=O)N(Cc3ccc(C)cc3)C(C)=C2C(=O)OC)ccc1O	inconclusive: 15.8 µM [inhibitor, single point]
Cc1ccc(S(=O)(=O)NCC(=O)OCc2ccccc2Br)cc1	inactive
CC(=O)c1cccc(NS(=O)(=O)c2ccc(N/C=C\C(=O)c3ccc(F)cc3)cc2)c1	inconclusive: 25.1 µM [inhibitor, single point]

The list goes on.

SMILES	Potency
COc1cc(SC)ccc1C(=O)Nc1cc(C)c(OCC(=O)N2CCOCC2)c(C)c1	inconclusive: 22.4 µM [inhibitor, single point]
CCOc1cc(/C=C2\C(=O)N(Cc3ccco3)C(C)=C2C(=O)OC)ccc1O	inconclusive: 35.5 µM [inhibitor, single point]
O=C(CCn1cnc2ccccc2c1=O)Nc1cccc(Cl)c1	inactive
COc1cccc(CNC(=O)c2ccc(-n3c(C)cc4c3CCC(C)C4)cc2)c1 (stereo unspecified)	inconclusive: 35.5 µM [inhibitor, single point]
Cc1ccc(CNC(=O)CN2C(=O)CSc3ccc(S(=O)(=O)N4CCC(C)CC4)cc32)cc1	inactive
CC(C)NC(=O)c1ccc(NC(=O)N2CCCCc3ccccc32)cc1	inactive
O=C(Cn1c(=O)nc(-c2ccccc2)c2cc(Cl)ccc21)Nc1ccc(F)c(Cl)c1	inconclusive: 1.41 µM [activator, partial curve, poor fit]
COC(=O)c1ccc2nc(NC(=O)C(C)(C)C)sc2c1	active: 1.12 µM
O=C(c1cccc(Oc2c(Cl)cccc2[N+](=O)[O-])c1)N1CCCCC1	inconclusive: 35.5 µM [inhibitor, single point]
Cc1cc[n+](C2=C([O-])c3ccccc3C(=O)/C2=N\S(=O)(=O)c2cccs2)cc1C	inconclusive: 29.1 µM [inhibitor, single point]
CC(=O)O/C(=C1\CC2C3CC=C4CC(OC(C)=O)CCC4(C)C3CCC2(C)C1=O)C(F)(F)F (stereo unspecified)	inconclusive: 10 µM [inhibitor, partial curve, poor fit]
Cc1ccc2nc3c(cc(C#N)c(=O)n3-c3nnc(SCc4ccccc4)s3)c(=O)n2c1	inactive
CN(C)c1ccc(NC2=C(Cl)C(=O)c3ccccc3C2=O)cc1	inconclusive: 4.47 µM [inhibitor, full curve, poor fit]
COc1ccc(NC(=O)c2cc3c(=O)n4ccccc4nc3n2C)cc1OC	inconclusive: 2.82 µM [inhibitor, single point]
COc1ccccc1Nc1ccc(Nc2ccccc2OC)nn1	inactive
COc1ccccc1-n1c(C)c2c(OC)cccc(=O)c2c1C	inactive
CC(=O)N1c2ccc(S(=O)(=O)N3CCCCCC3)cc2CC1C(=O)NCc1cccc(C)c1 (stereo unspecified)	inactive
COc1cccc(OCc2nc(-c3ccc(Br)o3)no2)c1	inactive
CCc1ccc(-c2nc(CSCC(=O)NCc3ccco3)c(C)o2)cc1	inconclusive: 1.26 µM [inhibitor, full curve, poor fit]
Cc1cccc(NC(=O)CSc2nc3ccc(NC(=O)c4ccccc4)cc3s2)c1	inactive
COc1ccccc1CN(Cc1cccnc1)S(=O)(=O)c1ccc(-n2cnnn2)c(OC)c1	inactive
CCCCc1ccc(NS(=O)(=O)c2cccs2)cc1	inactive
CC(=O)c1cc(F)c(N2CCN(C(=O)COc3ccccc3F)CC2)cc1C	inactive
COc1ccc(OCC(=O)O/N=C(\N)c2ccc(OC)c(OC)c2)cc1	inconclusive: 35.5 µM [inhibitor, single point]

SMILES	Potency
COc1ccc(COc2cc(-c3cccc(OC)c3)nc3ccc(NC(=O)c4ccc(N(C)C)cc4)cc23)cc1	inconclusive: 29.1 µM [inhibitor, single point]
Cn1cnnc1SCC(=O)NNC(=O)c1ccc([N+](=O)[O-])cc1	inactive
COc1cccc(C(C(=O)NC2CCCC2)N(CCC(C)C)C(=O)CCC(=O)Nc2cc(C)on2)c1 (stereo unspecified)	inconclusive: 35.5 µM [inhibitor, single point]
Cc1ccc(-c2ccc(/C=N/c3ncn[nH]3)o2)cc1Cl	inconclusive: 11.2 µM [inhibitor, partial curve]
Cc1ccc(NC(=O)CN2C(=O)N/C(=C/c3ccccc3OCc3cccc(C(=O)O)c3)C2=O)cc1	inconclusive: 3.98 µM [activator, single point]
O=C(/C=C/c1ccc2c(c1)OCO2)NCc1ccc(F)cc1	inconclusive: 6.51 µM [inhibitor, partial curve, poor fit]
CNC(=S)NC12CC3CC(CC(C3)C1)C2	inconclusive: 0.794 µM [activator, single point]
CCC(=O)OCCNc1cc(Sc2nc3ccccc3s2)c2nonc2c1[N+](=O)[O-]	inconclusive: 32.6 µM [inhibitor, single point]
Brc1ccc2c(c1)OCCOCCOCCOCCOCCO2	inactive
COc1ccc(-c2cc(C(=O)N3CCOCC3)c3cc(C)ccc3n2)cc1	inconclusive: 1.16 µM [activator, full curve, poor fit]
O=C(O)CNS(=O)(=O)c1cccc2nsnc12	inactive
O=C(CSc1n[nH]c(-c2ccc(S(=O)(=O)NC3CCCCC3)cc2)n1)N1CCCC1	inconclusive: 9.2 µM [inhibitor, partial curve, poor fit]
CCOc1ccc(CC(=O)NCCc2sc3nc(-c4ccc(F)cc4)nn3c2C)cc1	inactive
Cc1ccoc1C(=O)Nc1cccc(Oc2ccccc2)c1	inconclusive: 22.4 µM [inhibitor, single point]
C/C(=N\NC(=O)c1cc(C)nc2ccccc12)c1ccco1	inconclusive: 2.82 µM [activator, full curve, poor fit]
COc1cc(Cn2ccnc2)c(OC)cc1Cn1ccnc1	inconclusive: 3.26 µM [activator, full curve, poor fit]
O=C(CCNC(=O)c1ccc([N+](=O)[O-])cc1)Nc1ccccc1N1CCCC1	inactive
O=C(N1CCOCC1)N1c2ccccc2Sc2ccccc21	inconclusive: 29.1 µM [inhibitor, single point]
COc1ccc(N/N=C/c2c(O)n(-c3ccc(C)c(C)c3)c(=O)[nH]c2=O)cc1	inconclusive: 11.2 µM [inhibitor, partial curve]
COc1ccc(NC(=O)CN(C)S(=O)(=O)c2ccc3c(c2)CCCN3C(C)=O)cc1	inconclusive: 3.98 µM [inhibitor, partial curve, poor fit]
Cc1ccc(CSc2nc3nc(C)cc(C)n3n2)cc1	inconclusive: 35.5 µM [inhibitor, single point]
CC(=O)OCC=C1CCC2C3CC(C)C4=CC(=O)CCC4(C)C3C(O)CC12C (stereo unspecified)	inconclusive: 20 µM [inhibitor, single point]
Cc1cc(C)c(S(=O)(=O)N2CCCOC2CNC(=O)C(=O)NCc2cccs2)c(C)c1 (stereo unspecified)	inconclusive: 3.66 µM [inhibitor, single point]
